Results published in the supplement of paper PMC10338343.
± gives the standard deviation. Only a part is listed here, and it is no random draw. The uncertainty is large for many entries.
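Also: 1 nM active piRISC with 0.1 nM target library at 33 °C single turnover.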

Each sequence was assayed on MILI (PIWIL2) piRISC loaded with piRNA #1 (26 nt) (assay: pre-steady-state target cleavage rate (min^-1); MIWI and MILI are mouse PIWI proteins and EfPiwi is from a freshwater sponge; tags in brackets are library labels; higher = faster piRNA-guided slicing of the target). Conditions: guide: piRNA #1 5'p-UGAGGUAGUAGGUUGUAUAGUAUCCA; auxiliary factor: 500 nM mouse GTSF1.
Outline: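 Three pooled Cleave-'n-Seq trials supplied the data, with k3 capped at 0.0001 min^-1. In each, […] transcribed, DNA-blocked target RNA library and 1 nM active affinity-purified piRISC with one synthetic guide reacted in HEPES–potassium acetate buffer at 33 °C for 0–8 or 0–960 min, with or without 500 nM GTSF1 partner protein. Uncleaved targets were sequenced and normalised to depth and to weakly complementary targets. A burst-and-steady-state fit provided the pre-steady-state cleavage rate.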
GGAGAGGAUACUAUACAACCUAGUACCACA was tested, and the “pre-steady-state target cleavage rate” value was 0.000893 ± 0.0082.
In the case of GGAGACCUUACUAUACAAUCUACUACCUCA, the “pre-steady-state target cleavage rate” value is reported as 0.127 ± 0.01.
GGAGACCUAUGAUAUGUUCCUAACUACCUCA was tested, and the “pre-steady-state target cleavage rate” value was 0.000101 ± 0.025.
With GGAGACCUAUGAUAUGUACCUACUAUCCUCA the “pre-steady-state target cleavage rate” value was 0.000151 ± 0.022.
GGAGACCUAUGAUAUGUACCUACUUCCACA was tested, and the “pre-steady-state target cleavage rate” value was 0.000134 ± 0.021.
With GGAGACCUAUGAAUUCAAGCUACUACCUCA the “pre-steady-state target cleavage rate” value was 0.00298 ± 0.0032.
In the case of GGAGACCUAAGUAUUCAACCUACUACCUCA, the “pre-steady-state target cleavage rate” value is reported as 0.0617 ± 0.0092.
GGAGACCUAUGUAUACAACCAAGUACCUCA was tested, and the “pre-steady-state target cleavage rate” value was 0.00246 ± 0.0031.
In the case of GGAGACCUAACUAUACAACCUACCACCUCA, the “pre-steady-state target cleavage rate” value is reported as 0.0488 ± 0.014.
In the case of GGAGUGGAUACUAUACAACCAUGUACCUCA, the “pre-steady-state target cleavage rate” value is reported as 0.00209 ± 0.0031.
For GGAGACGAUACUAUAGAACCUACUUCCUCA, the “pre-steady-state target cleavage rate” value was 0.0055 ± 0.0044.
With GGAGAGGAUACUAGUACAACCUACUACCUCA the “pre-steady-state target cleavage rate” value was 0.079 ± 0.011.
In the case of GGAGACCUAUCUAUACAACCUACUACCUUCA, the “pre-steady-state target cleavage rate” value is reported as 0.139 ± 0.017.
In the case of GGAGUGGAUUCUAUACUACCUACUACCUCA, the “pre-steady-state target cleavage rate” value is reported as 0.155 ± 0.0078.
For “GGAGACCUAUGUAUACAACCUACUACCUCA [g2:g19:cont:t1A]”, the “pre-steady-state target cleavage rate” value was 0.0765 ± 0.012.
GGAGACCUAUGAUAUGUUGCUACUACCAGA was tested, and the “pre-steady-state target cleavage rate” value was 0.000246 ± 0.017.
For GGAGACCUAUGAUAUGAACCUAUCUACCUCA, the “pre-steady-state target cleavage rate” value was 0.000144 ± 0.02.
